# The supplement of paper PMC6411743
# ± gives the standard deviation of the averaged measurements. The entries are a selection whose mix differs from that of the whole data set.
# Experiments:
# Test in all cases: NP40-soluble protein abundance relative to vehicle (solubility fold change) (ratio); higher = more soluble protein in presence of AMP-PNP
# [1] = target: T1, UniProt Q8WX93 and related entries
# T1 sequence (whole entry): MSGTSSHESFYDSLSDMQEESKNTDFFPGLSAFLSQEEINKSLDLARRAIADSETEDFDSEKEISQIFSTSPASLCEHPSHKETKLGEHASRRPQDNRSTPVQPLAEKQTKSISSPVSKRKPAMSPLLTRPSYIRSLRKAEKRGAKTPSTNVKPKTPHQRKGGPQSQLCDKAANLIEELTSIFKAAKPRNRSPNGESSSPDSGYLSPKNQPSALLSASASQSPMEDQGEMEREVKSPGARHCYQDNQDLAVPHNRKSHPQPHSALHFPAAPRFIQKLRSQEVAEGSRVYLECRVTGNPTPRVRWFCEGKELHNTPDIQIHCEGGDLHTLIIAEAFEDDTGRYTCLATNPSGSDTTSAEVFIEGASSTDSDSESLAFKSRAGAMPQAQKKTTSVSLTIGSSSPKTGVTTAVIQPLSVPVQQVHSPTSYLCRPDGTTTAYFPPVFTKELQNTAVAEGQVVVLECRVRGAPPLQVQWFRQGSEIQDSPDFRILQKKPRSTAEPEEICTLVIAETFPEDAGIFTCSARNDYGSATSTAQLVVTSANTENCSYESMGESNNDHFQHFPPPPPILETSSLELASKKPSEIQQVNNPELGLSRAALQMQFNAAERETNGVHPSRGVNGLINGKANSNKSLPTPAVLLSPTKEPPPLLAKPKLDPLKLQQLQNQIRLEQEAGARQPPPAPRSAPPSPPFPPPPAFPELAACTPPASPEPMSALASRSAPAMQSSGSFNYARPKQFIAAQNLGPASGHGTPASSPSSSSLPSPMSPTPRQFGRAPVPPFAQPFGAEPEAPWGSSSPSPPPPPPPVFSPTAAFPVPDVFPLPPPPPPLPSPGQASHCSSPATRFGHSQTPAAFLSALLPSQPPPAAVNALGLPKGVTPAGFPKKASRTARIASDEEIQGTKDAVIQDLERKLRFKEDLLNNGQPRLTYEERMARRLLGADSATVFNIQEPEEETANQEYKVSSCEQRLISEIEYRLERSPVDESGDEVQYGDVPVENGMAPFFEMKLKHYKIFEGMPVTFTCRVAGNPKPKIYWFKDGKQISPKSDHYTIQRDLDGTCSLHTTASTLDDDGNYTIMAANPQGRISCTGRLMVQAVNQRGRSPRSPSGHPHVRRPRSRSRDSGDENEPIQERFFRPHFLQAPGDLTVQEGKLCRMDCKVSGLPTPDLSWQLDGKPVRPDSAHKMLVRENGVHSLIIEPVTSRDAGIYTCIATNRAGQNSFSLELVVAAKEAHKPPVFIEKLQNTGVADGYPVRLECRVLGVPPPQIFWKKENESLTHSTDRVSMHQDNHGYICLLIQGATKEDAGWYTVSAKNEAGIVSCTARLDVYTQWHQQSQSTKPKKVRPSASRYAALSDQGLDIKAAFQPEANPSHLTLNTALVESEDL
# Summary of the method: (§1)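 Data come from three independent experiments in which Dounce-homogenised Jurkat crude lysate was treated at eight concentrations from 0.1 to 10 mM. Treatment ran 10 min at room temperature and then 3 min at 37 °C, after which 0.8% NP40 and benzonase were added for 60 min at 4 °C before ultracentrifugation. The supernatant underwent TMT labelling and LC-MS/MS, and vsn-normalised intensities were expressed as fold change against the detergent-processed vehicle in each replicate.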
# [2] = target: T2, UniProt Q8WYQ5 and related entries
# T2 sequence (whole entry): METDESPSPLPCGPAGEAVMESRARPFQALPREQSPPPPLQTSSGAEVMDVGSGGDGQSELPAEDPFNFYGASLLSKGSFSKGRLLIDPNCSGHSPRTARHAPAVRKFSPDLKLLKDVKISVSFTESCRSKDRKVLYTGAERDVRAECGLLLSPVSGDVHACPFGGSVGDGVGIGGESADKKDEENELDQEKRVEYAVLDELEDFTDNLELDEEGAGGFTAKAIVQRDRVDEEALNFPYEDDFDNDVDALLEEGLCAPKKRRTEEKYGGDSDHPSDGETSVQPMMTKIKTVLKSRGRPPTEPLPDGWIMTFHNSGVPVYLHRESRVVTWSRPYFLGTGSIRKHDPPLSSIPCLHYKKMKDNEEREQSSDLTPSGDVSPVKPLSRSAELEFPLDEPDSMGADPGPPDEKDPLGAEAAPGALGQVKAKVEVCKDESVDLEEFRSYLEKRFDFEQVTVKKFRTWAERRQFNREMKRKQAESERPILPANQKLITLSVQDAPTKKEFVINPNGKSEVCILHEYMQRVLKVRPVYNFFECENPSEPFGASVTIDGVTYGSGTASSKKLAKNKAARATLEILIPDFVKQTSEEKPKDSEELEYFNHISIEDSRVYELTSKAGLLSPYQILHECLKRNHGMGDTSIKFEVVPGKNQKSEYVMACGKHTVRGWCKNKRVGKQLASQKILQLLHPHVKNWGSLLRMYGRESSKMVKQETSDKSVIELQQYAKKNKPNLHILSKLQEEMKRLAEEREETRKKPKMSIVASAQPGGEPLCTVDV
# Summary of the method: as §1
# [3] = target: T3, UniProt Q92581-2|Q92581-3|Q92581
# T3 sequence (whole entry): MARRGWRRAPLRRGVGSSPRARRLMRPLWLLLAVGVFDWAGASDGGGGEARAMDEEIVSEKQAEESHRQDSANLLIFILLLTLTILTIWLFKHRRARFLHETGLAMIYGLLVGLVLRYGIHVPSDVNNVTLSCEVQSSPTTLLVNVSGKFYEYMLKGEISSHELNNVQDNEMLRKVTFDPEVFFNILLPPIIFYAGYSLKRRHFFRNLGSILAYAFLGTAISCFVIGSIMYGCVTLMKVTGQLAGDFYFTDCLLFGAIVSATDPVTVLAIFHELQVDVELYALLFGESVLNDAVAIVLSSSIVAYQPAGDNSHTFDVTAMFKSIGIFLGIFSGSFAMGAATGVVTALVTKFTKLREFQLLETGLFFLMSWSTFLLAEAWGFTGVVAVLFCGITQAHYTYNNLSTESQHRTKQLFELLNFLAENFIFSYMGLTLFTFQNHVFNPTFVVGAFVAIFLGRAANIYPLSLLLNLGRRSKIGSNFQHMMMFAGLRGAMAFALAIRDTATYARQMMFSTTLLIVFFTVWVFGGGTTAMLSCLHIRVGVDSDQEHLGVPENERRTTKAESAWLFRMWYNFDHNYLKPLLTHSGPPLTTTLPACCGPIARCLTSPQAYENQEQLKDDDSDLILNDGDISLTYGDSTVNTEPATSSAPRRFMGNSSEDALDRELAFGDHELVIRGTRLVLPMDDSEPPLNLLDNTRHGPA
# Summary of the method: as §1
# [4] = target: T4, UniProt Q92851 and related entries
# T4 sequence (whole entry): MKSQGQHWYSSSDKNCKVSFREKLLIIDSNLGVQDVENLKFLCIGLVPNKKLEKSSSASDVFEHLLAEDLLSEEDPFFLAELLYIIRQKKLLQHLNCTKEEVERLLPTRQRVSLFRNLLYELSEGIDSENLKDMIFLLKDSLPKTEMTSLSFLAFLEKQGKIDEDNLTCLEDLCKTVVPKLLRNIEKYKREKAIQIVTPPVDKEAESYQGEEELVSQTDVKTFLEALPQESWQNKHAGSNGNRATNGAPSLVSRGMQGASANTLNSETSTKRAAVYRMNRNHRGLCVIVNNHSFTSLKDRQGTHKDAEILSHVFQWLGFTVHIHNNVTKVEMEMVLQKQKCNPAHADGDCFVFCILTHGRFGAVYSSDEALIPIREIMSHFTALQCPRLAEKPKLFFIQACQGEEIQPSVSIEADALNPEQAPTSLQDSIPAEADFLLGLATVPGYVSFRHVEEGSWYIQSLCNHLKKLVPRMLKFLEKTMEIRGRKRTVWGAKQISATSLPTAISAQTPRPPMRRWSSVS
# Summary of the method: as §1
# [5] = target: T5, UniProt Q92896 and related entries
# T5 sequence (whole entry): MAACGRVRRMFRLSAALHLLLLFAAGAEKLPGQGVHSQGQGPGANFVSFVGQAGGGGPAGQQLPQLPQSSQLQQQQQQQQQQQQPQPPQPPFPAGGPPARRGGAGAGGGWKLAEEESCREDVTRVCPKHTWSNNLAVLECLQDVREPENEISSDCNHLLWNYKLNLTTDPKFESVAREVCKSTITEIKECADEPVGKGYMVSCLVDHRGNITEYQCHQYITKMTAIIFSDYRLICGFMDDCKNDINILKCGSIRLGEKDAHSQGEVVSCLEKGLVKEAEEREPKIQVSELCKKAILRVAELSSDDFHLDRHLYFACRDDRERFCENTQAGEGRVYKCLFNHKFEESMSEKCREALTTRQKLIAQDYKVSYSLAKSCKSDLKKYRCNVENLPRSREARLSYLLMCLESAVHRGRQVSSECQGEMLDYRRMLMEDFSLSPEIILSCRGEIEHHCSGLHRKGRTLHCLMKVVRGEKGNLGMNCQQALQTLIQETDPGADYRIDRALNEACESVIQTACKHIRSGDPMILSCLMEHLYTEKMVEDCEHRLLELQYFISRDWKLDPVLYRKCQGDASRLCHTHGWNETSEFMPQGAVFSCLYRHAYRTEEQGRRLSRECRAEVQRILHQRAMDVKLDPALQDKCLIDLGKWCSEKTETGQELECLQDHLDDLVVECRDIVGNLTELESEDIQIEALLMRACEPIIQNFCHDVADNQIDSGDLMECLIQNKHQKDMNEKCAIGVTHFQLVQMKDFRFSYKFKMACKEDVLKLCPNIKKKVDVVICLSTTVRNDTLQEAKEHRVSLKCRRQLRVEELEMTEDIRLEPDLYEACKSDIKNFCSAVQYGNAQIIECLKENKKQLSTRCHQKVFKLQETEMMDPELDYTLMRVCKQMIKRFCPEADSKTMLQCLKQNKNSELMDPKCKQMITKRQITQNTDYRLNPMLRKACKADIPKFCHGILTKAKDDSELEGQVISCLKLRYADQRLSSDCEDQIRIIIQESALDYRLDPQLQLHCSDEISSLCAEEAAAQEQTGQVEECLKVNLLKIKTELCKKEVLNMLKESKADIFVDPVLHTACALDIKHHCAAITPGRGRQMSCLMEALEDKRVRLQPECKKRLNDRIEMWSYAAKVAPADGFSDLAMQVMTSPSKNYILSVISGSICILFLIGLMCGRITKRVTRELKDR
# Summary of the method: as §1
# WASF1 = target: T6, WASF1 (UniProt Q92558)
# T6 sequence (whole entry): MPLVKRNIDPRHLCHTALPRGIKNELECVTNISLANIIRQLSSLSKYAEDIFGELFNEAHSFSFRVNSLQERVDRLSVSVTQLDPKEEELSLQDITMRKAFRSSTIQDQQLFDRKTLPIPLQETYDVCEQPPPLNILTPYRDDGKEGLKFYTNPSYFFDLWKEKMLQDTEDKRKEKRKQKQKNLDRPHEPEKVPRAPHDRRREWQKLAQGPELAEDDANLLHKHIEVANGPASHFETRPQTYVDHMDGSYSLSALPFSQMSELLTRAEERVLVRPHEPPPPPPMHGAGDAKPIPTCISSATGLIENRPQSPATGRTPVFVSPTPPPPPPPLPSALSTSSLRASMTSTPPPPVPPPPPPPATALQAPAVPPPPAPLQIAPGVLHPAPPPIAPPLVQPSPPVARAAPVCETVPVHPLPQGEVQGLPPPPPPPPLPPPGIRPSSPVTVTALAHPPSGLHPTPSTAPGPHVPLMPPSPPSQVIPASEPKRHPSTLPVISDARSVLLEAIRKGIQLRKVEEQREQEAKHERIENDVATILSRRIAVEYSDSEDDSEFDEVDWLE
# Summary of the method: as §1
smiles,measurement,setting,value
Nc1ncnc2c1ncn2[C@@H]1O[C@H](COP(=O)(O)OP(=O)(O)NP(=O)(O)O)[C@@H](O)[C@H]1O [adenylyl imidodiphosphate],NP40-soluble protein abundance,[1]; concentration: 2mM,1.1 ± 0.099
same,NP40-soluble protein abundance,[1]; concentration: 4mM,1.04 ± 0.032
same,NP40-soluble protein abundance,[1]; concentration: 6mM,1.02 ± 0.03
same,NP40-soluble protein abundance,[1]; concentration: 8mM,1 ± 0.039
same,NP40-soluble protein abundance,[1]; concentration: 10mM,1.03 ± 0.043
same,NP40-soluble protein abundance,[2]; concentration: 1mM,1.08 ± 0.016
same,NP40-soluble protein abundance,[2]; concentration: 2mM,1.01 ± 0.016
same,NP40-soluble protein abundance,[2]; concentration: 4mM,1.04 ± 0.021
same,NP40-soluble protein abundance,[2]; concentration: 6mM,1.05 ± 0.071
same,NP40-soluble protein abundance,[2]; concentration: 8mM,1.03 ± 0.051
same,NP40-soluble protein abundance,[2]; concentration: 10mM,1.05 ± 0.055
same,NP40-soluble protein abundance,[3]; concentration: 1mM,0.999 ± 0.012
same,NP40-soluble protein abundance,[3]; concentration: 2mM,0.9876 ± 0.0034
same,NP40-soluble protein abundance,[3]; concentration: 4mM,0.957 ± 0.028
same,NP40-soluble protein abundance,[3]; concentration: 6mM,0.9812 ± 0.0025
same,NP40-soluble protein abundance,[3]; concentration: 8mM,0.979 ± 0.025
same,NP40-soluble protein abundance,[3]; concentration: 10mM,0.96 ± 0.026
same,NP40-soluble protein abundance,[4]; concentration: 1mM,1.01 ± 0.049
same,NP40-soluble protein abundance,[4]; concentration: 2mM,0.999 ± 0.029
same,NP40-soluble protein abundance,[4]; concentration: 4mM,1.03 ± 0.017
same,NP40-soluble protein abundance,[4]; concentration: 6mM,0.9904 ± 0.0072
same,NP40-soluble protein abundance,[4]; concentration: 8mM,0.999 ± 0.024
same,NP40-soluble protein abundance,[4]; concentration: 10mM,0.982 ± 0.026
same,NP40-soluble protein abundance,[5]; concentration: 1mM,1.01 ± 0.021
same,NP40-soluble protein abundance,[5]; concentration: 2mM,1.06 ± 0.098
same,NP40-soluble protein abundance,[5]; concentration: 4mM,1.01 ± 0.039
same,NP40-soluble protein abundance,[5]; concentration: 6mM,1.02 ± 0.021
same,NP40-soluble protein abundance,[5]; concentration: 8mM,0.993 ± 0.017
same,NP40-soluble protein abundance,[5]; concentration: 10mM,1.03 ± 0.017
same,NP40-soluble protein abundance,WASF1; concentration: 1mM,1.05 ± 0.017
same,NP40-soluble protein abundance,WASF1; concentration: 2mM,1.16 ± 0.091
same,NP40-soluble protein abundance,WASF1; concentration: 4mM,1.05 ± 0.02
same,NP40-soluble protein abundance,WASF1; concentration: 6mM,1.04 ± 0.061
same,NP40-soluble protein abundance,WASF1; concentration: 8mM,0.976 ± 0.039
same,NP40-soluble protein abundance,WASF1; concentration: 10mM,1.05 ± 0.051

# Rewritten as tab-separated lines: entries from further up
smiles	measurement	setting	value
Nc1ncnc2c1ncn2[C@@H]1O[C@H](COP(=O)(O)OP(=O)(O)NP(=O)(O)O)[C@@H](O)[C@H]1O [adenylyl imidodiphosphate]	NP40-soluble protein abundance	[2]; concentration: 1mM	1.08 ± 0.016
same	NP40-soluble protein abundance	[2]; concentration: 2mM	1.01 ± 0.016
